{"source": "patent US10695324B2", "about": "“Treatment for wolfram syndrome and other endoplasmic reticulum stress disorders” (Washington University, priority 2014, dated 2020)", "key": {"[1]": {"tested_on": "ER stress-mediated cell death", "details": "have been shown (references); cited from earlier work"}, "INS-1 823/13 cells": {"tested_on": "INS-1 823/13 cells", "assay": "Small-scale screen for prevention of thapsigargin mediated cell death, caspase 3/7-Glo luminescence", "type": "cell-based, rat", "details": "10 μM (Table 3), pretreated 24 hours, then 2 nM thapsigargin overnight", "protocol": "INS-1 823/13 cells were pretreated with DMSO or drugs for 24 hours the incubated in media containing 2 nM of thapsigargin (TG) overnight. Apoptosis was detected by caspase 3/7-Glo luminescence. […] These eight compounds were PARP Inhibitor, dantrolene sodium, NS398, rapamycin, pioglitazone, calpain inhibitor III, docosahexaenoic acid (DHA), and GLP-1 (FIG. 8A)."}}, "note": "At least one compound was matched to its structure with a doubt left. Some compounds share one wording; it may come from a single statement."}
{"smiles": "CCc1ccc(CCOc2ccc(CC3SC(=O)NC3=O)cc2)nc1", "note": "(centres unmarked) [pioglitazone]", "values": [{"measurement": "protection against ER stress-mediated cell death", "setting": "[1]", "value": "confer protection against ER stress-mediated cell death"}, {"measurement": "suppression of thapsigargin mediated cell death (apoptosis by caspase 3/7-Glo luminescence)", "setting": "INS-1 823/13 cells", "value": "significantly suppress thapsigargin mediated cell death"}]}
{"smiles": "CC/C=C\\C/C=C\\C/C=C\\C/C=C\\C/C=C\\C/C=C\\CCC(=O)O", "note": "[docosahexaenoic acid]", "values": [{"measurement": "suppression of thapsigargin mediated cell death (apoptosis by caspase 3/7-Glo luminescence)", "setting": "INS-1 823/13 cells", "value": "significantly suppress thapsigargin mediated cell death"}]}
{"smiles": "CO[C@H]1C[C@@H]2CC[C@@H](C)[C@@](O)(O2)C(=O)C(=O)N2CCCC[C@H]2C(=O)O[C@H]([C@H](C)C[C@@H]2CC[C@@H](O)[C@H](OC)C2)CC(=O)[C@H](C)/C=C(\\C)[C@@H](O)[C@@H](OC)C(=O)[C@H](C)C[C@H](C)/C=C/C=C/C=C/1C", "note": "[rapamycin]", "values": [{"measurement": "protection against ER stress-mediated cell death", "setting": "[1]", "value": "confer protection against ER stress-mediated cell death"}, {"measurement": "suppression of thapsigargin mediated cell death (apoptosis by caspase 3/7-Glo luminescence)", "setting": "INS-1 823/13 cells", "value": "significantly suppress thapsigargin mediated cell death"}]}
